Consider one substance from article PMC4299515.

No constants are given. Whether binding was seen depends on the method and setting. Binding can be weak; no strength is given.

The assay addresses T1, MBD1 in U2OS cells (F2H) (UniProt Q9Z2E2).
T1 sequence: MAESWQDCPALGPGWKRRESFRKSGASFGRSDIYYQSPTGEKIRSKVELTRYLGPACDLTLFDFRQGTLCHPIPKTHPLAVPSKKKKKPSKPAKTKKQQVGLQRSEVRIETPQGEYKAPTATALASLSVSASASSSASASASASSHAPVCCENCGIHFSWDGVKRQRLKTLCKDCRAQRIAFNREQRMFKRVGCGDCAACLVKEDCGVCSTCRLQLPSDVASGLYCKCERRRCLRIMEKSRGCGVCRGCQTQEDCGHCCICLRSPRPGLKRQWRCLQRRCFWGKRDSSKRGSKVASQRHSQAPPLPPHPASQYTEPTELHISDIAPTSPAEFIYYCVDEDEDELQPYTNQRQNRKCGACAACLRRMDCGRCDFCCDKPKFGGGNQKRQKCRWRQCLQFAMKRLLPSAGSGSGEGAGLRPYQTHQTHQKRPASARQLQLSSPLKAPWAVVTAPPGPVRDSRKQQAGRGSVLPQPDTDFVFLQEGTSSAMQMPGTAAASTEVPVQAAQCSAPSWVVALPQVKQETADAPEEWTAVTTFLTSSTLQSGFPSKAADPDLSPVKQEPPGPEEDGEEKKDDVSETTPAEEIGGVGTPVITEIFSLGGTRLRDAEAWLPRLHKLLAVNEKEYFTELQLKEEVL
As to the kind of experiment: two-hybrid; fluorescent two-hybrid (F2H) in living human U2OS cells: GFP-tagged protein tethered to lac-operator arrays via GBP-LacI, recruitment of the RFP-tagged protein seen by colocalization.

Regarding “HP1 (isoform not named) in the F2H test with MBD1”, the binding entry is reported as “binds”.
